The values below are quoted from earlier work in US5231089A, “Method of improving oral bioavailability of carbamazepine” (priority 1992, dated 1993).

The conditions of this data set: with cyclodextrin polymer; cited from earlier work.

For the compound `NS(=O)(=O)c1cc(C(=O)O)c(NCc2ccco2)cc1Cl` [furosemide], the dissolution result is listed as “improve”.
